Source: patent publication US20080318961A1, “Drugs comprising chymase inhibitors and ACE inhibitors as effective ingredients” (Teijin, priority 2001, published 2008)
Where a name gives a salt, the structure may show the parent alone. Some of these results come from one statement about several compounds together.

Tested on: hamster myocardial infarction (MI) models
Assay: Hamster myocardial infarction (MI) model, LAD ligation
Assay type: in vivo, Syrian hamsters
Settings: hamsters, administered after LAD ligation; placebo 48%

| Structure (SMILES) | 30 day survival rate after LAD ligation |
| --- | --- |
| CCCc1nc(C(C)(C)O)c(C(=O)O)n1Cc1ccc(-c2ccccc2-c2nnn[nH]2)cc1 [olmesartan] | 60-70% |
| CCOC(=O)[C@H](CCc1ccccc1)N[C@H]1CS[C@H](c2cccs2)CN(CC(=O)O)C1=O [temocapril hydrochloride] | 60-70% |
